PubChem BioAssay AID1159578 – Peter MacCallum Cancer Centre | 2015

- Test: 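siRNA pools altering how lymphatic endothelial cells close a scratch wound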 (primary screen)
- Cell system: human lymphatic endothelial cells
- Reagent: siRNA pool against human genes, 40 nM
- Duration: 48 h after transfection
- Measured: 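High-content imaging of dye-stained cells in a scratch assay measures filled wound area and nuclei per well; duplicate means given as ratio to mock and robust z-score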
- Scale: migration robust z-score: higher = faster migration into the scratch; nuclei per well: higher = more cells in the well
- Hit rule: 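Pools averaging fewer than 3300 nuclei are never called; remaining pools count as changed when migration robust z lies outside -2 to 2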
- Calls: active = migration changed; inactive = no migration change, or too few cells
This is a random part of about 18,000 reagents tested. About 1,030 of them (5.7%) were called active. 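Inactive calls also include pools with fewer than 3300 nuclei, whose migration was not assessed.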 Raw values are not corrected between plates. Entries without a mark were called inactive. Not all columns of the deposit are shown.

TNFSF14 (GeneID 8740) | migration robust z-score = 0.5; migration class with cell-count check = migration z between -2 and 2; enough cells; nuclei per well, duplicate mean = 6670
B4GALNT1 (GeneID 2583) | migration robust z-score = -0.62; migration class with cell-count check = migration z between -2 and 2; enough cells; nuclei per well, duplicate mean = 5710
FTL (GeneID 2512) | migration robust z-score = 0.78; migration class with cell-count check = migration z between -2 and 2; enough cells; nuclei per well, duplicate mean = 6122
FGF9 (GeneID 2254) | migration robust z-score = -0.11; migration class with cell-count check = migration z between -2 and 2; enough cells; nuclei per well, duplicate mean = 6068
XTBD1 (GeneID 91368) | migration robust z-score = -0.62; migration class with cell-count check = migration z between -2 and 2; enough cells; nuclei per well, duplicate mean = 5499
ZNF624 (GeneID 57547) | migration robust z-score = 1.39; migration class with cell-count check = migration z between -2 and 2; enough cells; nuclei per well, duplicate mean = 6290
SEMA3C (GeneID 10512) | migration robust z-score = -1.44; migration class with cell-count check = migration z between -2 and 2; enough cells; nuclei per well, duplicate mean = 4049
COX11 (GeneID 1353) | migration robust z-score = 0.02; migration class with cell-count check = migration z between -2 and 2; enough cells; nuclei per well, duplicate mean = 6120
USP20 (GeneID 10868) | migration robust z-score = -0.34; migration class with cell-count check = migration z between -2 and 2; enough cells; nuclei per well, duplicate mean = 4684
CTSW (GeneID 1521) | migration robust z-score = -0.11; migration class with cell-count check = migration z between -2 and 2; enough cells; nuclei per well, duplicate mean = 5368
IRX6 (GeneID 79190) | migration robust z-score = -0.51; migration class with cell-count check = migration z between -2 and 2; enough cells; nuclei per well, duplicate mean = 5843
PFDN1 (GeneID 5201) | migration robust z-score = -1.85; migration class with cell-count check = under 3300 nuclei; migration not judged; nuclei per well, duplicate mean = 3219
CD34 (GeneID 947) | migration robust z-score = -0.39; migration class with cell-count check = migration z between -2 and 2; enough cells; nuclei per well, duplicate mean = 5937
PSENEN (GeneID 55851) | migration robust z-score = -0.91; migration class with cell-count check = migration z between -2 and 2; enough cells; nuclei per well, duplicate mean = 5772
SPESP1 (GeneID 246777) | migration robust z-score = 0.22; migration class with cell-count check = migration z between -2 and 2; enough cells; nuclei per well, duplicate mean = 4054
FGD2 (GeneID 221472) | migration robust z-score = 0.72; migration class with cell-count check = migration z between -2 and 2; enough cells; nuclei per well, duplicate mean = 4766
VPS52 (GeneID 6293) | migration robust z-score = 0.38; migration class with cell-count check = migration z between -2 and 2; enough cells; nuclei per well, duplicate mean = 5262
KHNYN (GeneID 23351) | migration robust z-score = 1.18; migration class with cell-count check = migration z between -2 and 2; enough cells; nuclei per well, duplicate mean = 5842
SNRNP200 (GeneID 23020) | migration robust z-score = -0.5; migration class with cell-count check = migration z between -2 and 2; enough cells; nuclei per well, duplicate mean = 5438
BEND4 (GeneID 389206) | migration robust z-score = -2.15 (active); migration class with cell-count check = migration z below -2; enough cells; nuclei per well, duplicate mean = 6390
CBLB (GeneID 868) | migration robust z-score = -0.23; migration class with cell-count check = migration z between -2 and 2; enough cells; nuclei per well, duplicate mean = 4368
FATE1 (GeneID 89885) | migration robust z-score = -1.31; migration class with cell-count check = migration z between -2 and 2; enough cells; nuclei per well, duplicate mean = 4574
CLCA1 (GeneID 1179) | migration robust z-score = -0.42; migration class with cell-count check = migration z between -2 and 2; enough cells; nuclei per well, duplicate mean = 5082
STMN3 (GeneID 50861) | migration robust z-score = -0.62; migration class with cell-count check = migration z between -2 and 2; enough cells; nuclei per well, duplicate mean = 4829
RAD23B (GeneID 5887) | migration robust z-score = -0.13; migration class with cell-count check = migration z between -2 and 2; enough cells; nuclei per well, duplicate mean = 3682
ZNF596 (GeneID 169270) | migration robust z-score = -0.28; migration class with cell-count check = migration z between -2 and 2; enough cells; nuclei per well, duplicate mean = 6170
BCL7A (GeneID 605) | migration robust z-score = -0.16; migration class with cell-count check = migration z between -2 and 2; enough cells; nuclei per well, duplicate mean = 5251

Reprinted from the listing, 4 entries:
FGD2 (GeneID 221472) | migration robust z-score = 0.72; migration class with cell-count check = migration z between -2 and 2; enough cells; nuclei per well, duplicate mean = 4766
VPS52 (GeneID 6293) | migration robust z-score = 0.38; migration class with cell-count check = migration z between -2 and 2; enough cells; nuclei per well, duplicate mean = 5262
KHNYN (GeneID 23351) | migration robust z-score = 1.18; migration class with cell-count check = migration z between -2 and 2; enough cells; nuclei per well, duplicate mean = 5842
SNRNP200 (GeneID 23020) | migration robust z-score = -0.5; migration class with cell-count check = migration z between -2 and 2; enough cells; nuclei per well, duplicate mean = 5438
